Data: US20030065039A1, “Biologically active 1,3-bis-aromatic-prop-2-en-1-ones, 1,3-bis-aromatic-propan-1-ones, and 1,3-bis-aromatic-prop-2-yn-1-ones” (Statens Serum Institute, priority 1997, published 2003)
For some assays here: At least one structure is not confirmed: it was looked up by name or label, or the drawing left a doubt. Some of these results come from one statement about several compounds together.

Experiments:
Helicobacter pylori = test: Helicobacter species Assay (agar plate, MIC); type: cell-based; conditions: at a concentration of 16 μg/ml; 20 strains
Protocol: 20 strains of Helicobacter pylori were used in an agar plate assay. The compounds were incorporated in the agar plates at different concentrations as described in the examples and were then inoculated with different strains of Helicobacter pylori followed by incubation in a microaerophilic atmosphere at 37° C. for 72 hours. The number of colony-forming units (CFU) were counted after the incubation period. The MIC values were determined as the minimal concentration required to inhibit growth of the bacteria.
Stock solutions were made at a concentration of 1 mg/ml by dissolving 1 mg of each compound in 100 μl DMSO (dimethylsulfoxide) followed by addition of 900 μl of heat-inactivated fetal claf serum (HFCS). These stock solutions were diluted with HFCS to make solutions having the following concentrations: 320 μg/ml, 160 μg/ml, 80 μg/ml, 40 μg/ml and 20 μg/ml. […]
Bacteria: 20 strains of Helicobacter pylori were used in an agar plate assay. […] The number of colony-forming units (CFU) were counted after the incubation period. The MIC values were determined as the minimal concentration required to inhibit growth of the bacteria. […]
Bacteria: 20 strains of Helicobacter pylori were used in an agar plate assay. The same method as described above under Experiment A was employed and MIC values were determined.

TNF-α = TNF-α production by human peripheral blood mononuclear cells, culture supernatant (ELISA); type: cell-based; conditions: concentrations of 12.5 μg/ml and higher
Protocol: Cells: Peripheral blood mononuclear cells obtained from healthy individuals. The cells were separated by a conventional method lymphoprep) and suspended in RMPI 1640 containing 5% human serum.
Stimulation of cytokine-release from human mononuclear cells: Human peripheral blood mononuclear cells from Danish donors were suspended in 1-10% (v/v) human serum in RPMI 1640 and adjusted to 2×10^6 cells per ml. 0.1 ml volumes were then dispensed into wells of 96-well microtiter plates. […] In some experiments cells were preincubated with drugs for 2 hrs before addition of stimulation antigens. The cultures were incubated overnight for TNF-α and IL-6 assays.
Supernatants were collected and assayed for TNF-α, IL-1α and IL-6 by ELISA procedures (Jakobsen et al., 1993, Fomsgaard et al., 1988, Hansen et al., 1991) with the following modifications. ELISA Maxisorp plates (Nunc, Roskilde, Denmark) were coated for 24 hrs at 4 C with 100 μl per well of 2.5 μg/ml rabbit polyclonal IgG to human recombinant TNF, IL-1α or IL-6 in 100 mM sodiumhydrogencarbonate. Non-attached sites were blocked for 1 h by 200 μl per well of 2% human serum slbumin in PBS (1 h at 37° C.), and the wells were washed 4 times in 2.5% NaCl, 0.1% Tween 20 (Merck, Darmstadt, Germany). This washing procedure was done after each of the following incubating steps:
1) 100 μl culture supernatants made to 50% (v/v) in incubation buffer (4% (v/v) normal rabbit serum, DAKO code X902), 1% polyethylene glycol (MW 6,000), 2.5% NaCl, 0.1% Tween 20 in phosphate buffered saline (PBS) were incubated 2 hrs at 37° C., dilutions of native as well as recombinant cytokine standards in the same incubation buffer were asssayed in parallel with the tested supernatants,
2) 100 μl per well of biotinilated rabbit antibodies to recombinant TNF-α, IL-1α or IL-6 (1.5 μg/ml in 0.5% human serum albumin, 0.1% Tween 20 in PBS) were added at 37° for 2 hrs,
3) […] per well of a 1:1000 dilution of streptavidin-peroxidase (Amersham, UK), at room temperature for 30 min.
Enzyme activities were quantitated after addition of 100 μl per well of 0.67 mg/ml 1,2-phenyldiamine hydrochloride (DAKO) dissolved in 100 mM citric acid-phosphate buffer, pH 5.0 containing 0.015% (v/v) H2O2. The reactions were stopped by adding 50 μl per well of 2.5 M H2SO4, and the optical densities are measured in an ELISA scanner at 490 nm against a test reference at 620 nm.
Assay: The compounds were prepared as stock solution at a concentration of 1 mg/ml in medium containing 10% DMSO. The dilutions were made in medium. The cells were stimulated with either SPAG (a malaria antigen TNF-inducer) or bacterial LPS. The supernatant of cell cultures were assayed for TNF-α using a commercial ELISA kit.

Compound	strains of Helicobacter pylori inhibited (Helicobacter pylori)	inhibition of the production of TNF-α (TNF-α)
C=CC(C)(C)c1cc(/C=C/C(=O)c2ccc(O)cc2)c(OC)cc1O [Licochalcone A]	all 20	
CCCCOc1cccc(C(=O)/C=C/c2ccc(OC)cc2OC)c1 [PH81, 3′-butoxy-2,4-dimethoxychalcone]		greater than 95%
COc1cc(/C=C/C(=O)c2ccccc2F)cc(OC)c1 [PH135, 2′-fluoro-3,5-dimethoxychalcone]		greater than 95%
COc1cc(/C=C/C(=O)c2cccc(F)c2)cc(OC)c1 [PH136, 3′-fluoro-3,5-dimethoxychalcone]		greater than 95%
CCCCOc1ccccc1C(=O)/C=C/c1ccc(OC)cc1OC [PH142, 2′-butoxy-2,4-dimethoxychalcone]		greater than 95%
